Measurements from the supplement of paper PMC8728848.
Some of the results follow.

Columns and labels:
Assay in all cases: glycan array binding signal (z-score within array); higher = stronger binding
Conditions in all cases: glycan notation: IUPAC condensed, linker removed
[1] = target: Fuc(a1-3)[Gal(b1-4)]Glc6S
How it was run: (§1)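 The binding signal is a Z-score computed within each array. Data were drawn from 3228 arrays in the Consortium for Functional Glycomics database, restricted to those with a known protein sequence. Scores were averaged over arrays of the same protein sequence at different concentrations or buffers, and over linkers, and negative values can be taken as non-binding.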

[2] = target: Fuc(a1-3)[Gal(b1-4)]GlcNAc
How it was run: as §1

[3] = target: Fuc(a1-3)[Gal(b1-4)]GlcNAc(b1-2)Man(a1-3)[Fuc(a1-3)[Gal(b1-4)]GlcNAc(b1-2)Man(a1-6)]Man(b1-4)GlcNAc(b1-4)GlcNAc
How it was run: as §1

[4] = target: Fuc(a1-3)[Gal(b1-4)]GlcNAc(b1-2)Man(a1-6)[Gal(b1-4)GlcNAc(b1-2)Man(a1-3)]Man(b1-4)GlcNAc(b1-4)GlcNAc
How it was run: as §1

[5] = target: Fuc(a1-3)[Gal(b1-4)]GlcNAc(b1-3)Gal(b1-3)[Fuc(a1-4)]GlcNAc
How it was run: as §1

[6] = target: Fuc(a1-3)[Gal(b1-4)]GlcNAc(b1-4)Gal(b1-4)[Fuc(a1-3)]GlcNAc
How it was run: as §1

[7] = target: Fuc(a1-3)[Gal(b1-4)]GlcNAc(b1-4)Gal(b1-4)[Fuc(a1-3)]GlcNAc(b1-4)Gal(b1-4)[Fuc(a1-3)]GlcNAc
How it was run: as §1

[8] = target: Fuc(a1-3)[Gal(b1-4)]GlcNAc6S
How it was run: as §1

[9] = target: Fuc(a1-3)[Gal3S(b1-4)]Glc6S
How it was run: as §1

[10] = target: Fuc(a1-3)[Gal3S(b1-4)]GlcNAc
How it was run: as §1

[11] = target: Fuc(a1-3)[Gal3S(b1-4)]GlcNAc6S
How it was run: as §1

[12] = target: Fuc(a1-3)[GalNAc(b1-4)]GlcNAc
How it was run: as §1

[13] = target: Fuc(a1-3)[Neu5Ac(a2-3)]Gal(b1-4)GlcNAc(b1-3)GalNAc
How it was run: as §1

Fuc(a1-4)GlcNAc = target: Fuc(a1-4)GlcNAc
How it was run: as §1

Fuc(b1-3)GlcNAc = target: Fuc(b1-3)GlcNAc
How it was run: as §1

Gal(a1-2)Gal = target: Gal(a1-2)Gal
How it was run: as §1

Gal(a1-3)Gal = target: Gal(a1-3)Gal
How it was run: as §1

Gal(a1-3)Gal(b1-3)GlcNAc = target: Gal(a1-3)Gal(b1-3)GlcNAc
How it was run: as §1

Gal(a1-3)Gal(b1-4)Glc = target: Gal(a1-3)Gal(b1-4)Glc
How it was run: as §1

Gal(a1-3)Gal(b1-4)GlcNAc = target: Gal(a1-3)Gal(b1-4)GlcNAc
How it was run: as §1

[14] = target: Gal(a1-3)Gal(b1-4)[Fuc(a1-3)]GlcNAc
How it was run: as §1

[15] = target: Gal(a1-3)Gal(b1-4)[Fuc(a1-3)]GlcNAc(b1-2)Man(a1-3)[Gal(a1-3)Gal(b1-4)[Fuc(a1-3)]GlcNAc(b1-2)Man(a1-6)]Man(b1-4)GlcNAc(b1-4)GlcNAc
How it was run: as §1

Gal(a1-3)GalNAc = target: Gal(a1-3)GalNAc
How it was run: as §1

[16] = target: Gal(a1-3)[Gal(a1-4)]Gal(b1-4)GlcNAc
How it was run: as §1

Gal(a1-4)Gal(b1-4)Glc = target: Gal(a1-4)Gal(b1-4)Glc
How it was run: as §1

Gal(a1-4)Gal(b1-4)GlcNAc = target: Gal(a1-4)Gal(b1-4)GlcNAc
How it was run: as §1

[17] = target: Gal(a1-4)Gal(b1-4)GlcNAc(b1-3)Gal(b1-4)Glc
How it was run: as §1

Gal(a1-4)GlcNAc = target: Gal(a1-4)GlcNAc
How it was run: as §1

Gal(a1-6)Glc = target: Gal(a1-6)Glc
How it was run: as §1

Gal(b1-2)Gal = target: Gal(b1-2)Gal
How it was run: as §1

Gal(b1-3)Gal = target: Gal(b1-3)Gal
How it was run: as §1

Gal(b1-3)Gal(b1-4)GlcNAc = target: Gal(b1-3)Gal(b1-4)GlcNAc
How it was run: as §1

[18] = target: Gal(b1-3)Gal(b1-4)GlcNAc(b1-2)Man(a1-3)[Gal(b1-3)Gal(b1-4)GlcNAc(b1-2)Man(a1-6)]Man(b1-4)GlcNAc(b1-4)GlcNAc
How it was run: as §1

Gal(b1-3)GalNAc = target: Gal(b1-3)GalNAc
How it was run: as §1

[19] = target: Gal(b1-3)GalNAc(a1-3)[Fuc(a1-2)]Gal(b1-4)Glc
How it was run: as §1

[20] = target: Gal(b1-3)GalNAc(a1-3)[Fuc(a1-2)]Gal(b1-4)GlcNAc
How it was run: as §1

[21] = target: Gal(b1-3)GalNAc(b1-3)Gal(a1-4)Gal(b1-4)Glc
How it was run: as §1

[22] = target: Gal(b1-3)GalNAc(b1-4)Gal(b1-4)Glc
How it was run: as §1

[23] = target: Gal(b1-3)GalNAc(b1-4)[Neu5Ac(a2-3)]Gal(b1-4)Glc
How it was run: as §1

Gal(b1-3)GlcNAc = target: Gal(b1-3)GlcNAc
How it was run: as §1

[24] = target: Gal(b1-3)GlcNAc(b1-2)Man(a1-3)[Gal(b1-3)GlcNAc(b1-2)Man(a1-6)]Man(b1-4)GlcNAc(b1-4)GlcNAc
How it was run: as §1

[25] = target: Gal(b1-3)GlcNAc(b1-2)Man(a1-3)[Gal(b1-3)GlcNAc(b1-2)Man(a1-6)]Man(b1-4)GlcNAc(b1-4)[Fuc(a1-6)]GlcNAc
How it was run: as §1

[26] = target: Gal(b1-3)GlcNAc(b1-3)Gal(b1-3)GlcNAc
How it was run: as §1

[27] = target: Gal(b1-3)GlcNAc(b1-3)Gal(b1-4)Glc
How it was run: as §1

[28] = target: Gal(b1-3)GlcNAc(b1-3)Gal(b1-4)GlcNAc
How it was run: as §1

B1: Spy 2007 (Streptococcus pyogenes), Q99XV3 (protein)
chain: MKKGFFLMAMVVSLVMIAGCDKSANPKQPTQGMSVVTSFYPMYAMTKEVSGDLNDVRMIQSGAGIHSFEPSVNDVAAIYDADLFVYHSHTLEAWARDLDPNLKKSKVDVFEASKPLTLDRVKGLEDMEVTQGIDPATLYDPHTWTDPVLAGEEAVNIAKELGRLDPKHKDSYTKNAKAFKKEAEQLTEEYTQKFKKVRSKTFVTQHTAFSYLAKRFGLKQLGISGISPEQEPSPRQLKEIQDFVKEYNVKTIFAEDNVNPKIAHAIAKSTGAKVKTLSPLEAAPSGNKTYLENLRANLEVLYQQLK
- glycan array binding signal (z-score) [1]: 0.675
- glycan array binding signal (z-score) [2]: 0.136
- glycan array binding signal (z-score) [3]: 0.038
- glycan array binding signal (z-score) [4]: -0.579
- glycan array binding signal (z-score) [5]: -0.44
- glycan array binding signal (z-score) [6]: -0.088
- glycan array binding signal (z-score) [7]: 0.396
- glycan array binding signal (z-score) [8]: 0.562
- glycan array binding signal (z-score) [9]: 1.48
- glycan array binding signal (z-score) [10]: 0.277
- glycan array binding signal (z-score) [11]: 2.33
- glycan array binding signal (z-score) [12]: -0.891
- glycan array binding signal (z-score) [13]: 5.41
- glycan array binding signal (z-score) (Fuc(a1-4)GlcNAc): 0.449
- glycan array binding signal (z-score) (Fuc(b1-3)GlcNAc): 0.122
- glycan array binding signal (z-score) (Gal(a1-2)Gal): -0.365
- glycan array binding signal (z-score) (Gal(a1-3)Gal): -0.177
- glycan array binding signal (z-score) (Gal(a1-3)Gal(b1-3)GlcNAc): -0.945
- glycan array binding signal (z-score) (Gal(a1-3)Gal(b1-4)Glc): -0.639
- glycan array binding signal (z-score) (Gal(a1-3)Gal(b1-4)GlcNAc): -0.263
- glycan array binding signal (z-score) [14]: -0.457
- glycan array binding signal (z-score) [15]: -0.52
- glycan array binding signal (z-score) (Gal(a1-3)GalNAc): -0.301
- glycan array binding signal (z-score) [16]: 0.56
- glycan array binding signal (z-score) (Gal(a1-4)Gal(b1-4)Glc): 0.582
- glycan array binding signal (z-score) (Gal(a1-4)Gal(b1-4)GlcNAc): -0.259
- glycan array binding signal (z-score) [17]: -1
- glycan array binding signal (z-score) (Gal(a1-4)GlcNAc): 0.023
- glycan array binding signal (z-score) (Gal(a1-6)Glc): -0.074
- glycan array binding signal (z-score) (Gal(b1-2)Gal): -0.796
- glycan array binding signal (z-score) (Gal(b1-3)Gal): -0.009
- glycan array binding signal (z-score) (Gal(b1-3)Gal(b1-4)GlcNAc): -0.656
- glycan array binding signal (z-score) [18]: -1.09
- glycan array binding signal (z-score) (Gal(b1-3)GalNAc): -0.661
- glycan array binding signal (z-score) [19]: 1.01
- glycan array binding signal (z-score) [20]: -0.971
- glycan array binding signal (z-score) [21]: -0.709
- glycan array binding signal (z-score) [22]: -0.651
- glycan array binding signal (z-score) [23]: -0.1
- glycan array binding signal (z-score) (Gal(b1-3)GlcNAc): 0.496
- glycan array binding signal (z-score) [24]: -0.647
- glycan array binding signal (z-score) [25]: -0.788
- glycan array binding signal (z-score) [26]: -0.348
- glycan array binding signal (z-score) [27]: -0.103
- glycan array binding signal (z-score) [28]: -0.735
